Laboratory results: PubChem BioAssay AID743454 (Peter MacCallum Cancer Centre, 2014)
Purpose: 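Search for knock-downs that restore vorinostat killing in resistant colon cancer cells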 (primary screen). Cell system: human HCT116-VR colon cancer cells, selected for vorinostat resistance. Knock-down reagent: siRNA pool against human genes, 40 nM siRNA pool. Time to read-out: vorinostat for 24 h, read-out about 72 h after transfection. Treatment: vorinostat at 2.5 µM final. Read-out: 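Cell viability by CellTiter-Fluor and caspase 3/7 activity by luminescence, each scaled to mock wells per plate, duplicates averaged, then robust z-scored over all plates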. Scale: viability robust z-score: higher = more viable cells than screen typical; caspase robust z-score: higher = more caspase 3/7 activity than screen typical. Active means: 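a knock-down is a hit when classed RV1 or RV2 for lowered viability, or CA1 or CA2 for caspase activation; those lethal without drug were dropped; hits were retested singly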.
Here is a random part of about 18,000 reagents tested. Of all reagents, 450 (2.5%) were called active. 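Single biological run; no consistent viability z cut-off exists, so the class columns, not z-scores, define the calls.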 Unmarked entries are inactive. No sequences are given here.

Gene	PubChem SID	viability hit class	caspase hit class	viability robust z-score	caspase robust z-score
RGS21 (GeneID 431704)	SID152156079	no change	no change	1.86	-0.26
PARP8 (GeneID 79668)	SID134319808	no change	no change	-0.3	1.35
UPP2 (GeneID 151531)	SID134311936	no change	no change	1.34	0.34
KDM5D (GeneID 8284)	SID152148605	no change (active)	CA1 (caspase activation)	-1.58	5.4
GNG3 (GeneID 2785)	SID152155012	no change	no change	-0.09	-0.4
TRIM43B (GeneID 653192)	SID152153231	no change	no change	0.16	-0.76
GAS2L2 (GeneID 246176)	SID152150250	no change	no change	-0.32	0.16
FCAMR (GeneID 83953)	SID135622815	no change	no change	0.45	-0.38
LKAAEAR1 (GeneID 198437)	SID135625236	no change	no change	-0.52	3.26
FOXI1 (GeneID 2299)	SID135621649	RV2 (reduced viability) (active)	no change	-3.47	3.78
GTF2H2C_2 (GeneID 730394)	SID135625604	no change	no change	1.12	-0.78
DLL1 (GeneID 28514)	SID152155535	no change	no change	-0.44	0.12
KCND1 (GeneID 3750)	SID134311642	no change	no change	-1.29	-0.74
RPE (GeneID 6120)	SID134317020	no change	no change	0.07	0.16
HMGCR (GeneID 3156)	SID135621846	no change	no change	1.28	0.26
CCDC181 (GeneID 57821)	SID134318204	no change	no change	0.68	-0.42
OGDH (GeneID 4967)	SID135621820	RV2 (reduced viability) (active)	no change	-3.38	-0.72
KRTAP4-5 (GeneID 85289)	SID135622579	no change	no change	0.06	0.06
FBXO8 (GeneID 26269)	SID134316707	no change	no change	-1.16	-1.16
SSX5 (GeneID 6758)	SID134321278	no change	no change	0.16	-0.28
KLB (GeneID 152831)	SID134321847	no change	no change	-1.33	4.04
PRSS38 (GeneID 339501)	SID134311397	no change	no change	-3.16	1.33
SPATA31D1 (GeneID 389763)	SID135625280	no change	no change	-1.32	0.59
XKR3 (GeneID 150165)	SID152151474	no change	no change	-1.11	-0.72
ZNF718 (GeneID 255403)	SID135623002	no change	no change	1.36	0.42
FOXE3 (GeneID 2301)	SID152148579	no change	no change	0.38	0.84
YIPF1 (GeneID 54432)	SID134320879	no change	no change	-0.44	0.2
AMHR2 (GeneID 269)	SID56478996	no change	no change	0.02	0.44
SLC6A19 (GeneID 340024)	SID152152602	no change	no change	1.38	-0.24
FGF2 (GeneID 2247)	SID134311959	no change	no change	-0.32	1.12
CHST4 (GeneID 10164)	SID134310651	no change	no change	0.49	-0.11
CNOT11 (GeneID 55571)	SID134324577	no change	no change	0.64	0.19
YWHAB (GeneID 7529)	SID135621640	no change	no change	-1.32	-1.01
METTL2A (GeneID 339175)	SID135623630	no change	no change	0.8	-1.16
OBSL1 (GeneID 23363)	SID152147663	no change	no change	-1.12	3.29
KCNK17 (GeneID 89822)	SID135621169	no change	no change	0.47	1.81
TNFSF10 (GeneID 8743)	SID134315855	no change	no change	1.05	1.47
CST9L (GeneID 128821)	SID135622506	no change	no change	-0.21	0.73
SPATA31A1 (GeneID 647060)	SID135625449	no change	no change	-0.38	0.64
SPATA31A1 (GeneID 647060)	SID135625521	no change	no change	-1.47	-0.12
RABEP1 (GeneID 9135)	SID152148989	no change	no change	0.75	-0.16
DNAAF11 (GeneID 23639)	SID152152265	no change	no change	0.34	-0.92
BDKRB2 (GeneID 624)	SID56479070	no change	no change	-0.62	0.32
NAE1 (GeneID 8883)	SID135621191	no change	no change	1.03	-0.92
DEFB105A (GeneID 245908)	SID134320594	no change	no change	-0.18	-0.2
PRAMEF1 (GeneID 65121)	SID134318411	no change	no change	-0.07	0.6
CLDN12 (GeneID 9069)	SID135624168	no change	no change	-0.38	-0.34
HEY2 (GeneID 23493)	SID152149206	no change	no change	0.16	-0.38
TAF1D (GeneID 79101)	SID152153094	no change	no change	0.78	0.42
EXO1 (GeneID 9156)	SID134317355	no change	no change	0.48	-0.66
CCDC136 (GeneID 64753)	SID135623549	no change	no change	-2.69	-1.13
HNRNPLL (GeneID 92906)	SID134320344	no change	no change	0.04	1.13
GUCA2A (GeneID 2980)	SID134325062	no change	no change	0.68	-0.88
PCBP1 (GeneID 5093)	SID134316528	no change	no change	-0.07	-0.12
BCO2 (GeneID 83875)	SID152156346	no change	no change	0.18	1.62
LPL (GeneID 4023)	SID152150492	no change	no change	-0.81	-0.43
EGFLAM (GeneID 133584)	SID135623709	no change	no change	0.4	-0.08

An excerpt from the list above:
Gene	PubChem SID	viability hit class	caspase hit class	viability robust z-score	caspase robust z-score
YWHAB (GeneID 7529)	SID135621640	no change	no change	-1.32	-1.01
METTL2A (GeneID 339175)	SID135623630	no change	no change	0.8	-1.16
OBSL1 (GeneID 23363)	SID152147663	no change	no change	-1.12	3.29
KCNK17 (GeneID 89822)	SID135621169	no change	no change	0.47	1.81
TNFSF10 (GeneID 8743)	SID134315855	no change	no change	1.05	1.47
CST9L (GeneID 128821)	SID135622506	no change	no change	-0.21	0.73
